Entries after “also recorded” stand apart in the source; their conditions may differ.

The data set deals with importin α5 KO mice. Description: Open field (OF) test, importin α5 KO mice. It is filed as in vivo, mouse. Conditions: FG-7142 5 mg/kg intraperitoneally, OF after 30 min. On the procedure:
All drugs were administered by intraperitoneal injection (I.P.). […] A. CNS Drug Rev.

Consider `CNC(=O)c1cc2c(cn1)[nH]c1ccccc12` [FG-7142], for which the average movement velocity result was “without affecting; also recorded: does not perturb”.

Values taken from patent US20200060994A1, “METHODS OF TREATING PSYCHIATRIC STRESS DISORDERS” (Yeda Research and Development Co. Ltd., priority 2017, published 2020).
